# Assay results taken from patent US11419916B2, “Methods and compositions for inducing differentiation of human brown adipocyte progenitors” (Energesis Pharmaceuticals, Inc., priority 2014, dated 2022).
# For at least one compound, name, drawing or mass did not settle the structure.
# System: CD31-cells (BAT progenitor cells isolated from human skeletal muscle)
# Assay: Quantification of UCP1 and PPARγ2 mRNA (normalized to cyclophilin A) by multiplexed TaqMan real-time PCR to quantify differentiation into brown adipocytes
# Type: cell-based
# Text: A robust method, previously disclosed in WO2013071063 and incorporated herein by reference, was used for detection of CD31-cell differentiation into brown adipocytes by simultaneously quantifying mRNA species corresponding to the brown adipocyte marker UCP1, the adipocyte marker PPARγ2, and the “housekeeping” gene cyclophilin A which was used as the internal control.
# This method permits analysis of a large number of samples to identify agents that enhance the differentiation of CD31-cells into brown adipocytes. […]
# Quantification of UCP1, PPARγ2 and cyclophilin A mRNA by multiplexed TaqMan real-time PCR was thus used to quantify differentiation of the CD31-cells into brown adipocytes. […]
# Quantitative real-time PCR was performed using an Applied Biosystems StepOnePlus™ instrument, TaqMan Gene Expression Master Mix (Applied Biosystems #4369016), and custom TaqMan gene expression probes and primers for human uncoupling protein-1 “UCP1” (GenBank NM_021833) and for human peptidylprolyl isomerase A “cyclophilin A” (GenBank NM_021130).
# Cyclophilin A was used as a control to account for any variations due to the efficiency of reverse transcription. Arbitrary units were determined by normalizing target mRNA levels to cyclophilin A mRNA levels (based on Cts).
smiles,measurement,value
CN(CCOc1ccc(CC2SC(=O)NC2=O)cc1)c1ccccn1 (stereo not shown) [rosiglitazone],"differentiation of BAT progenitor cells into brown adipocytes and/or expression of UCP1, PPARγ2 mRNA",promote the differentiation of BAT progenitor cells into brown adipocytes and/or induce the expression of UCP1
